In the supplement of paper PMC10849652:
The other results are listed elsewhere or left out.

The chains behind the UniProt entries cited, without tags or fusion partners. Where a name states a change or a piece, a line headed by the entry shows the natural chain unless it says otherwise.
UniProt O94826, whole entry, looked up: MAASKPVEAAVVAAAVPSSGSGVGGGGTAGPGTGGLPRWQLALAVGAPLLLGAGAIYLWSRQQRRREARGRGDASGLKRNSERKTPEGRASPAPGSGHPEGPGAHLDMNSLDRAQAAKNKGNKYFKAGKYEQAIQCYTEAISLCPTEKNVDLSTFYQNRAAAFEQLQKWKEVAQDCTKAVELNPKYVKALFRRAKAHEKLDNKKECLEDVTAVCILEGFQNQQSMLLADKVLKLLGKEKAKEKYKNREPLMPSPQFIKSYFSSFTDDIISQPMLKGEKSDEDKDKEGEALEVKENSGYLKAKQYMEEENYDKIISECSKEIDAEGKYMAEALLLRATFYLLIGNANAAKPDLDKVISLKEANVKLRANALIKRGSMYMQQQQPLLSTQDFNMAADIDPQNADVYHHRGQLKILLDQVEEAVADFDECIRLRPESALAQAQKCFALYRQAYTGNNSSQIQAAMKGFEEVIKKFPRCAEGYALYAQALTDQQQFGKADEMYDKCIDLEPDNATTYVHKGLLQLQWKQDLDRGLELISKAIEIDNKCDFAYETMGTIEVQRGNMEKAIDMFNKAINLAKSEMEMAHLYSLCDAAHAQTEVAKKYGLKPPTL
UniProt O95379: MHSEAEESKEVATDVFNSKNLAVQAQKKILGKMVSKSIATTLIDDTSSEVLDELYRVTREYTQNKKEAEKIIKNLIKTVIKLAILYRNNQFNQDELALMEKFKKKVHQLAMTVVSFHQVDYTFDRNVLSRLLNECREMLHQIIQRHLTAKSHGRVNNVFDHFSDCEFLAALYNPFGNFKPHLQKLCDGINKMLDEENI
UniProt Q9NZR1: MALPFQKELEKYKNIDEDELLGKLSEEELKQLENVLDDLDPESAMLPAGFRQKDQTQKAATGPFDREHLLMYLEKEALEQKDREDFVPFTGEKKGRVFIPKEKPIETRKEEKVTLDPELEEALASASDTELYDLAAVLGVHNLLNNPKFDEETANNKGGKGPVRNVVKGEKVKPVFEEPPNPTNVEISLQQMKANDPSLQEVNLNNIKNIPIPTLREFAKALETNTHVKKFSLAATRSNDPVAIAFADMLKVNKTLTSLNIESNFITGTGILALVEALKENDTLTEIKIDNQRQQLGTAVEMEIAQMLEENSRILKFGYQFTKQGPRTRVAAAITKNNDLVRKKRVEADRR
UniProt Q9H4I3: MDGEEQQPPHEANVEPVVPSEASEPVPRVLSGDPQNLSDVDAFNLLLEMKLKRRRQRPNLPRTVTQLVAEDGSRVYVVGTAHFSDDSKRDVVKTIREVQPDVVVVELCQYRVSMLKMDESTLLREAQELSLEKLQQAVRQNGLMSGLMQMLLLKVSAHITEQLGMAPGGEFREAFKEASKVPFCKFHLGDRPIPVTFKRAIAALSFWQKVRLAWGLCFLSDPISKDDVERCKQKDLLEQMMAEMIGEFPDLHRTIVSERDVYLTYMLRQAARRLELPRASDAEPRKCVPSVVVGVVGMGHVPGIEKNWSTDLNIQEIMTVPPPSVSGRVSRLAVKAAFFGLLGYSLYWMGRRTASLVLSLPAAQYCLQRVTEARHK
UniProt Q8NFQ8: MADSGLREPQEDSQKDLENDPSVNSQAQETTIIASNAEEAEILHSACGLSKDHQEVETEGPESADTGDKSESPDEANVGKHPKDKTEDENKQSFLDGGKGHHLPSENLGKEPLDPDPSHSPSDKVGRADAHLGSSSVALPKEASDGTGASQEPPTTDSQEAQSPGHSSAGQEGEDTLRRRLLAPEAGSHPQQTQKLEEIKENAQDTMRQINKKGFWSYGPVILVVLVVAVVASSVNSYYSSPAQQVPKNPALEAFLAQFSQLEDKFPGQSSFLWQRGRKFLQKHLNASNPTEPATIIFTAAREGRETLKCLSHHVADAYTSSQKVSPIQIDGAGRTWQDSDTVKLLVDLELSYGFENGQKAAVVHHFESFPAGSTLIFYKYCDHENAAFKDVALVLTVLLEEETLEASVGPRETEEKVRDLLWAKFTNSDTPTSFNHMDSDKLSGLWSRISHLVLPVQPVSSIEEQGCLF
UniProt Q969M1: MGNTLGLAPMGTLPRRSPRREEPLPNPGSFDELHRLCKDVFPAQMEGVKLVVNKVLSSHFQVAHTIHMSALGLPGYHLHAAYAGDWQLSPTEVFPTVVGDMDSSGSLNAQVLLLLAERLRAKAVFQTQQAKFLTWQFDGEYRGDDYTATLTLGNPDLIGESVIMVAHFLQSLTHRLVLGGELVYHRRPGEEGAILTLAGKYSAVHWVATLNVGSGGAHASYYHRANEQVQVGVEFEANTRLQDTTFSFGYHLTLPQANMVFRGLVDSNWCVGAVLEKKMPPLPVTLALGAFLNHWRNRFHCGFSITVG
UniProt Q96JJ7: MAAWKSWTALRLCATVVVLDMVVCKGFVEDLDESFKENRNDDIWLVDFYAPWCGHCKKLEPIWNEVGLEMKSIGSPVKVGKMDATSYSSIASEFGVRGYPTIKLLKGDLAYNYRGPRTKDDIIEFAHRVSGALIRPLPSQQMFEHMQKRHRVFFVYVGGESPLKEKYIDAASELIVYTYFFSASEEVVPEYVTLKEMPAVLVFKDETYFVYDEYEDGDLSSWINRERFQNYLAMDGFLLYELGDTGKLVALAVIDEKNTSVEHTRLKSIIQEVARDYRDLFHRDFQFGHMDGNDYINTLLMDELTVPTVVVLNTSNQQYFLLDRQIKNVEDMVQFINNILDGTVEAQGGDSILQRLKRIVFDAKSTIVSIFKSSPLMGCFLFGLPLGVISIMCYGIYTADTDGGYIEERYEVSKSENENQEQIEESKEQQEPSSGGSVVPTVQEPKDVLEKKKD
UniProt P06753, whole entry, looked up: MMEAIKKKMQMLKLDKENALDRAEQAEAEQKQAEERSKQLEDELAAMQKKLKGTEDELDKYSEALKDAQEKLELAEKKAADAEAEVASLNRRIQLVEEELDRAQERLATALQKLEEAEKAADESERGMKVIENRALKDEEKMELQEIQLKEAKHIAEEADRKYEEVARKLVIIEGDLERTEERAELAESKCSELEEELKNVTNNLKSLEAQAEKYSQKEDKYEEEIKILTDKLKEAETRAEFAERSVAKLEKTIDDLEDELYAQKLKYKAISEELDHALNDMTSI
UniProt Q6ZXV5: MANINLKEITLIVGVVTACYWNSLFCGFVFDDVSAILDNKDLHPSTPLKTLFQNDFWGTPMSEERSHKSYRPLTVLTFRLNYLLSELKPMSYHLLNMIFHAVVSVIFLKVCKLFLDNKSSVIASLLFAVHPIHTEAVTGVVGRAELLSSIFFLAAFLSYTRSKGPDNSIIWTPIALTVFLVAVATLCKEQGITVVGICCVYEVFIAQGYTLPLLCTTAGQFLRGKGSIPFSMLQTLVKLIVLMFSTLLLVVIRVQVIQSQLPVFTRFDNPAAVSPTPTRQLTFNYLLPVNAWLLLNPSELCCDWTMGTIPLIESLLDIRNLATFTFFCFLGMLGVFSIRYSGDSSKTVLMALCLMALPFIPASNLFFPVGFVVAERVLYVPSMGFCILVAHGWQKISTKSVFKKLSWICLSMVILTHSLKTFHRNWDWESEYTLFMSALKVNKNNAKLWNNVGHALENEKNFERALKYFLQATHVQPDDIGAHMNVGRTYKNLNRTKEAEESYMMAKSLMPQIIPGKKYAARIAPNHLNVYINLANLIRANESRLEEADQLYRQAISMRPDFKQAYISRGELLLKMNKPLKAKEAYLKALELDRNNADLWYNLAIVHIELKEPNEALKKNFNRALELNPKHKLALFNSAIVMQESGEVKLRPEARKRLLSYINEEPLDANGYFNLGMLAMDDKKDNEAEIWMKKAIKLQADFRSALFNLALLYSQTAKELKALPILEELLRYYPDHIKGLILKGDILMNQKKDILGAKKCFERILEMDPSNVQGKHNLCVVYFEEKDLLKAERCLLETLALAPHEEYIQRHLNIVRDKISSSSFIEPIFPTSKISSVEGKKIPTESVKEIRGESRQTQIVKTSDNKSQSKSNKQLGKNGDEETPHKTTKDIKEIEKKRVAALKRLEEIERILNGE
UniProt Q5JU69: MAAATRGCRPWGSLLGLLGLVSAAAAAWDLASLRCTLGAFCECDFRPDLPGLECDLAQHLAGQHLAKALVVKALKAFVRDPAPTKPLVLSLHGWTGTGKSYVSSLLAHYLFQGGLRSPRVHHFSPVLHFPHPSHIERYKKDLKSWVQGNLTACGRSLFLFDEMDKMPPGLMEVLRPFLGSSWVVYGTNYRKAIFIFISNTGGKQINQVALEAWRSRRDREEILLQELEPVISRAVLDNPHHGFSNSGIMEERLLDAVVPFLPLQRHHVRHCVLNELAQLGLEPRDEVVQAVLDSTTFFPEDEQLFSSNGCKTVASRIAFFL
UniProt Q4ZIN3: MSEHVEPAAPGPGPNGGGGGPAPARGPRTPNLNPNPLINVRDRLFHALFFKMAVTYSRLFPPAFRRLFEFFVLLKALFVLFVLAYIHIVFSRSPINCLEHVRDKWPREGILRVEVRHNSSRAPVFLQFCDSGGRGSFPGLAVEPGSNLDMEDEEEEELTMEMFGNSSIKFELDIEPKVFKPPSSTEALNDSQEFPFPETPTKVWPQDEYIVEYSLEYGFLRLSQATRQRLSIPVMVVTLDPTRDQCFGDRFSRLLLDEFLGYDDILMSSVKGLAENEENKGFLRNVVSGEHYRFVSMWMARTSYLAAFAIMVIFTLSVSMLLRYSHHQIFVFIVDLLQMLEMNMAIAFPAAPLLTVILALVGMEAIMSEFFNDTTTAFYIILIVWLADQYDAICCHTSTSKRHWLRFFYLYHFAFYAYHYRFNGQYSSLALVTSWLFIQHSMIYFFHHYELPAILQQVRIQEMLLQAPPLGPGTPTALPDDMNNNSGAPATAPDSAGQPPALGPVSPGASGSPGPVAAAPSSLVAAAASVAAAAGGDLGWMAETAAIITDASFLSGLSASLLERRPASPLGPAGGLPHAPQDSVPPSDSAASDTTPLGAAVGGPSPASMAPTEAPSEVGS
UniProt O14787: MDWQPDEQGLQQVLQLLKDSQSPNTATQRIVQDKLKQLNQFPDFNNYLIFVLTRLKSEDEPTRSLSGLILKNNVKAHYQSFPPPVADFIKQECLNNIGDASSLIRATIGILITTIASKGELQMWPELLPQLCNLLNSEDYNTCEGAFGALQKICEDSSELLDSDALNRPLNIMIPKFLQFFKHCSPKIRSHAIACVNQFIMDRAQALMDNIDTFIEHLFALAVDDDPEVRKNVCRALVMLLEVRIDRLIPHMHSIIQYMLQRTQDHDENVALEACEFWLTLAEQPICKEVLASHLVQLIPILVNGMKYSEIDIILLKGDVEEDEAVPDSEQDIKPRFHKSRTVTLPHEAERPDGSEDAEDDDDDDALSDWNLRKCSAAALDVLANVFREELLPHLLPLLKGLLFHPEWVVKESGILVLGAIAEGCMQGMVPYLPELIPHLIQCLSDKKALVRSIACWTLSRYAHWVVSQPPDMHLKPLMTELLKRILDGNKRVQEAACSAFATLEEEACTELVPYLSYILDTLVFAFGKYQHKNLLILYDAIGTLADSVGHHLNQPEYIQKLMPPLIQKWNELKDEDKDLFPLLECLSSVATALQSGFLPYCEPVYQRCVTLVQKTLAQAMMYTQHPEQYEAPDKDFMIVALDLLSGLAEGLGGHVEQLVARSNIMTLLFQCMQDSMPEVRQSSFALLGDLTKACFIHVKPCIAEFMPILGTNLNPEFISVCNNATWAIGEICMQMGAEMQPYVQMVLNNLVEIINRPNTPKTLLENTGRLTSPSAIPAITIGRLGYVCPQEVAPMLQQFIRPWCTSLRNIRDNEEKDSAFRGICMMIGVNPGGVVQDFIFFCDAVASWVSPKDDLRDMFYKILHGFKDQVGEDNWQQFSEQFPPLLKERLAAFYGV
UniProt Q6NUQ4: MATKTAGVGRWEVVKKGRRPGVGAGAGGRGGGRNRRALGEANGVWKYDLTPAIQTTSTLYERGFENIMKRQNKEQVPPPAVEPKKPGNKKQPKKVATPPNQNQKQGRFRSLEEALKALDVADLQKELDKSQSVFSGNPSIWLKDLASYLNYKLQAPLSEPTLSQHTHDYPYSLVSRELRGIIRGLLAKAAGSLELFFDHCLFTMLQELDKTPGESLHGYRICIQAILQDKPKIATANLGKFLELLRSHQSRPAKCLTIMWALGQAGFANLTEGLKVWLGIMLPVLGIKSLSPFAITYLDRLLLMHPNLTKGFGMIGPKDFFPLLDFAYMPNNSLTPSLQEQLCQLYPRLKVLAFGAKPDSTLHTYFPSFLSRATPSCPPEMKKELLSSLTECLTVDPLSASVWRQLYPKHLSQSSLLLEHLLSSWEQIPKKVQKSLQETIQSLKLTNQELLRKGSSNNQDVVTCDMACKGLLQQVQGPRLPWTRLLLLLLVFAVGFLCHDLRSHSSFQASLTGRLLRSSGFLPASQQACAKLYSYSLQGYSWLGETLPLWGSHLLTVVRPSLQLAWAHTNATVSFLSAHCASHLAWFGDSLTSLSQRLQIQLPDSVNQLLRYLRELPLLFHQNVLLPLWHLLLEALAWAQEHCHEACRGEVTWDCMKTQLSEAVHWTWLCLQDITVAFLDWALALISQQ

compound: c1ccc([C@@H]2C[C@H]2NC2CCNCC2)cc1; assay: log2 fold change, soluble protein after heating vs DMSO (PISA); higher = thermal stabilisation; K562 lysate, 10 uM; active = over 0.2 and 3.5 SD of the protein, either way, in both replicates (recomputed)
Outline: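 Soluble protein was defined as the supernatant remaining after 21,000xg for 90 min, following pooling of heated aliquots and adjustment to 0.5% NP-40 at 4°C. Before that, crude K562 extract at 1 mg/mL protein in PBS pH 7.4 with 1 mM MgCl2 was treated with 10 μM compound for 30 min and heated for 3 min across 48°C-58°C. Quantification used TMTpro 16plex LC-MS/MS with channel sums equalised, and values are log-two fold changes in thermal stability relative to solvent controls from duplicates.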

Target	log2 fold change
TMEM8A (UniProt Q9HCN3)	inactive: -0.053
TMEM62 (UniProt Q0P6H9)	inactive: 0.153
TOMM70 (UniProt O94826)	inactive: 0.04
TNFAIP8 isoform 4 (UniProt O95379)	inactive: 0.069
TMOD2 (UniProt Q9NZR1)	inactive: 0
TRABD (UniProt Q9H4I3)	inactive: -0.077
TMPPE (UniProt Q6ZT21)	inactive: -0.008
TPCN1 isoform 3 (UniProt Q9ULQ1)	inactive: 0.991
TOR1AIP2 (UniProt Q8NFQ8)	inactive: 0.028
TMEM223 (UniProt A0PJW6)	inactive: 0.008
TOMM40L (UniProt Q969M1)	inactive: -0.053
TMEM242 (UniProt Q9NWH2)	inactive: -0.01
TMLHE isoform 8 (UniProt Q9NVH6)	inactive: -0.019
TNIP2 (UniProt Q8NFZ5)	inactive: 0.039
TMX3 (UniProt Q96JJ7)	inactive: -0.023
TPM3 (UniProt P06753)	inactive: 0.057

Target	log2 fold change
TMX2 (UniProt Q9Y320)	inactive: -0.068
TONSL (UniProt Q96HA7)	inactive: 0.066
TP53BP1 isoform 2 (UniProt Q12888)	inactive: 0.019
TPT1 (UniProt P13693)	inactive: 0.006
TPP1 (UniProt O14773)	inactive: 0.006
TMEM41A (UniProt Q96HV5)	inactive: -0.067
TMTC3 (UniProt Q6ZXV5)	inactive: 0.053
TMEM245 (UniProt Q9H330)	inactive: -0.042
TMEM63A (UniProt O94886)	inactive: 0.011
TOR2A (UniProt Q5JU69)	inactive: 0.103
TOM1 (UniProt O60784)	inactive: 0.019
TMEM259 (UniProt Q4ZIN3)	inactive: 0.069
TMEM230 isoform 2 (UniProt Q96A57)	inactive: -0.106
TNPO2 (UniProt O14787)	inactive: 0.028
TMEM214 (UniProt Q6NUQ4)	inactive: 0.037

Looked up one by one from the entries so far, 2 records:
Target	log2 fold change
TMEM259 (UniProt Q4ZIN3)	inactive: 0.069
TMEM214 (UniProt Q6NUQ4)	inactive: 0.037
